The results in this text go back to article PMC3741172.

By UniProt entry, the sequences of proteins in these tests, tags left out. Residues count along the entry.
UniProt Q924X6, residues 29-996: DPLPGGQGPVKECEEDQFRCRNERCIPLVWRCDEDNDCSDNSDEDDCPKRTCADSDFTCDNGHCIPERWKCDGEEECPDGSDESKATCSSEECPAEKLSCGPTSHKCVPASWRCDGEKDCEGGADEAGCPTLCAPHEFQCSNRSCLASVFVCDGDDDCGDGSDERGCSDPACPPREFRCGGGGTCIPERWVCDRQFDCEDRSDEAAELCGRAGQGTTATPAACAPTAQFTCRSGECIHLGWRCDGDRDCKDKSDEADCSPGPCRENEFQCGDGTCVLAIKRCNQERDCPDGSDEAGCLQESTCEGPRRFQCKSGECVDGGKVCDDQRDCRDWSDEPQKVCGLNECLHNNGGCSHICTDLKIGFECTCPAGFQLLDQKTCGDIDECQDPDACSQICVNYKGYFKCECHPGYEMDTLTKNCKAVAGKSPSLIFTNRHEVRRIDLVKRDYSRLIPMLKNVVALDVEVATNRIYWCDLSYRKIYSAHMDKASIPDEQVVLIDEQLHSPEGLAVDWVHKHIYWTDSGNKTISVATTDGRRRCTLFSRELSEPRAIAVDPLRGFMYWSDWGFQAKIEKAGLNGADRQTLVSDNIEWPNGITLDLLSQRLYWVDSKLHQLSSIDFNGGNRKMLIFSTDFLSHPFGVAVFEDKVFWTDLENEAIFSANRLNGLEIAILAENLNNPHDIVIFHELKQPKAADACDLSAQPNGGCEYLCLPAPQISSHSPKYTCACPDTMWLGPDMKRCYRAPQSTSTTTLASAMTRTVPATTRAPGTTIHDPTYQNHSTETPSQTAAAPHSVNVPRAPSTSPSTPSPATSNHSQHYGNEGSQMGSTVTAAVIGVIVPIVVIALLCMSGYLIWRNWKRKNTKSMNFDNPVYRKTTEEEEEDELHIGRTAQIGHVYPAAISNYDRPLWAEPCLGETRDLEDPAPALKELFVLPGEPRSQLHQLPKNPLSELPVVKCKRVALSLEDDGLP
UniProt P78509, residues 26-3460: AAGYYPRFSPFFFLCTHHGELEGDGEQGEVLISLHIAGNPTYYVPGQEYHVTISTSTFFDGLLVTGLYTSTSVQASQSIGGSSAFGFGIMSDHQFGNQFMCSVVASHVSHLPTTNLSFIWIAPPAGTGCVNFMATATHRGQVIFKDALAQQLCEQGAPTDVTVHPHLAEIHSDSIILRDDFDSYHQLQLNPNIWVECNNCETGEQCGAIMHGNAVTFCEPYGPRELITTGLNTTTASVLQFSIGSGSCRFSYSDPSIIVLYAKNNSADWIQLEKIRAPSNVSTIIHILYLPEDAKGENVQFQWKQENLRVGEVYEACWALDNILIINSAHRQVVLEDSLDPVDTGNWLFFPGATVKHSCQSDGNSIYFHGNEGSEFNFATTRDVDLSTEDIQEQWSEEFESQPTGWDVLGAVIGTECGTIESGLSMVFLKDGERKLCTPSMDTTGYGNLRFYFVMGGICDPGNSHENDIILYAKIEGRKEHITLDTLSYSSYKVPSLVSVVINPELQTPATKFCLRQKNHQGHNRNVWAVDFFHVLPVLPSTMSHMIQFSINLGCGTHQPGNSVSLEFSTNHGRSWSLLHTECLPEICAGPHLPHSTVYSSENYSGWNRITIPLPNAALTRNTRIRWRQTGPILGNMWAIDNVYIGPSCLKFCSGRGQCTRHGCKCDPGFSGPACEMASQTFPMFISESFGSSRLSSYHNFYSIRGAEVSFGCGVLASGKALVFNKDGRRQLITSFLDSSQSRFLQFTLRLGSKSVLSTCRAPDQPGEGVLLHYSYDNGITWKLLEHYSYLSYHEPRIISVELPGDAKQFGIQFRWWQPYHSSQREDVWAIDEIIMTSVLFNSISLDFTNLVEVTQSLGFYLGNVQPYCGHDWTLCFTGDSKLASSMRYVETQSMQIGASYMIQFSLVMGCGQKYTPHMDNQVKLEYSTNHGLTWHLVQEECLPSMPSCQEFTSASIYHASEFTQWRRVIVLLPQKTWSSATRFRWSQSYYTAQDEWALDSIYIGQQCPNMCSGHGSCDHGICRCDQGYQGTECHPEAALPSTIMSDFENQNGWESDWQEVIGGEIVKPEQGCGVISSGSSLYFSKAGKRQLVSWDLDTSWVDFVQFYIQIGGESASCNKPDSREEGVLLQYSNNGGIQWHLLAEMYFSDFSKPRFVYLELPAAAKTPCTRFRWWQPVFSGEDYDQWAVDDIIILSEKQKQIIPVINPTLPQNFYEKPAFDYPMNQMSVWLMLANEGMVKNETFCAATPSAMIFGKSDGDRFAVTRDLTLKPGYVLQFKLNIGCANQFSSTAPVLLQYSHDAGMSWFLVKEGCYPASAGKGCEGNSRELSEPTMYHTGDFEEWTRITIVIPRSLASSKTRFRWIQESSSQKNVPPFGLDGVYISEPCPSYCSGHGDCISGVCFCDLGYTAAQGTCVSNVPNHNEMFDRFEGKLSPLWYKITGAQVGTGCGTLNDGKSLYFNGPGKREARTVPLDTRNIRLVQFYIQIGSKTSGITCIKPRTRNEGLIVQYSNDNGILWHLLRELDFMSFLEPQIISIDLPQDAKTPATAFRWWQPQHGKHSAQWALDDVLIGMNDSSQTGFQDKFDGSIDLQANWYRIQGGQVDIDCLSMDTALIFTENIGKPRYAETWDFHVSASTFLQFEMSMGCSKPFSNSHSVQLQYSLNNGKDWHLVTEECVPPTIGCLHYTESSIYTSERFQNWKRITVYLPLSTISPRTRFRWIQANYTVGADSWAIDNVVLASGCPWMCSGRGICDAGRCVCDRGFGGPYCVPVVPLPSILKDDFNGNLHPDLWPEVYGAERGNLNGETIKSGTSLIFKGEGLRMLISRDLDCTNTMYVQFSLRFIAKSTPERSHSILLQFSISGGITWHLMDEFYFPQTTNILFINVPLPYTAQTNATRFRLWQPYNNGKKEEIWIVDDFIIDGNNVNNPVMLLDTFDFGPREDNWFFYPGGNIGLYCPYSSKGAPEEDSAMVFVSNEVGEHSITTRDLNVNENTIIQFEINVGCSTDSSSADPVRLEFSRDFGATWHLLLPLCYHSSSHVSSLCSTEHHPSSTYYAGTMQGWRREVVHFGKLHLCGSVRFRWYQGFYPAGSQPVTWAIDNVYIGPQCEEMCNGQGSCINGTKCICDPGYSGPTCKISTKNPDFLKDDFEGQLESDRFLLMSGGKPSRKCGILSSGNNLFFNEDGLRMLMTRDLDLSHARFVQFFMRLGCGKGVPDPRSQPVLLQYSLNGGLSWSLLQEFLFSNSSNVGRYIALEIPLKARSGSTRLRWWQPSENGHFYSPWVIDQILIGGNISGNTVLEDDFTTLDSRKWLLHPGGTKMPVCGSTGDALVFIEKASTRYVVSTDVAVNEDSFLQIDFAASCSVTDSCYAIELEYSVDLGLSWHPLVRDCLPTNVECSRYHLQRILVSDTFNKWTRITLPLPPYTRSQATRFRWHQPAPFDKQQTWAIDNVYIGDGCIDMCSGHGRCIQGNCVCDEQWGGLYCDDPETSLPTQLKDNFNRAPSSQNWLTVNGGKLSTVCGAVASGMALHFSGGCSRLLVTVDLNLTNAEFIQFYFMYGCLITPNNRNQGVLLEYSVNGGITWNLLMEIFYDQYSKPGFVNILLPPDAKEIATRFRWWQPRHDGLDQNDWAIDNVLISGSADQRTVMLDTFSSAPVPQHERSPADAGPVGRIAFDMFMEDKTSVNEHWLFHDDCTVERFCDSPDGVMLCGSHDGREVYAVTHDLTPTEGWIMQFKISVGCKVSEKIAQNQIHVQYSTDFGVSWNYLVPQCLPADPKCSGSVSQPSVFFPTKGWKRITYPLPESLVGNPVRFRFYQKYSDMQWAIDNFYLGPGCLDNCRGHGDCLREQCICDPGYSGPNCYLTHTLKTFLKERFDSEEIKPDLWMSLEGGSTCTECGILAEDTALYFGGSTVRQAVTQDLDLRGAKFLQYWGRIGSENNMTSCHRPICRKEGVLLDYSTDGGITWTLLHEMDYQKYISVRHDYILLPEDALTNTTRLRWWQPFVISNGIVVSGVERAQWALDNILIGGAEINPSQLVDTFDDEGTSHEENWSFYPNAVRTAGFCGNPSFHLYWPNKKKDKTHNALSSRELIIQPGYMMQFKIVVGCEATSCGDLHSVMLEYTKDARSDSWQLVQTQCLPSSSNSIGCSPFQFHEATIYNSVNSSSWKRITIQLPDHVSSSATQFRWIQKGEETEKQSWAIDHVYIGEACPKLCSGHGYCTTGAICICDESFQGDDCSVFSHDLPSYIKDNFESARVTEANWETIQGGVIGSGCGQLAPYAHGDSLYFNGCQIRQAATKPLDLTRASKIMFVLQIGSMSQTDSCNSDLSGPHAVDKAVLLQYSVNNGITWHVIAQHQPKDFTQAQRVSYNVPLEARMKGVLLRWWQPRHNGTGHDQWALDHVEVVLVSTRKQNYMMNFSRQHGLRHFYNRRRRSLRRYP

Results are given in words; binding and its absence hold for the method and conditions named. Binding seen in cells or lysates may run through a third protein. Some entries that bind do so weakly or less than the wild type.

In this assay the target is full-length mouse ApoER2 tagged with EGFP (mouse) (UniProt Q924X6). In words: pull-down; ApoER2-GFP from HEK-293 extracts immobilised on anti-GFP Sepharose (4 h), incubated overnight with Reelin-enriched SH-SY5Y supernatants; bound and unbound fractions blotted for Reelin.

“Cont-Reelin (secreted Reelin from untransfected SH-SY5Y cells treated without Aβ42) (from UniProt P78509 26-3460)”: the binding result was “binds”.
